Results on one compound are retold here after publication PMC11091220, “Metabolism-driven in vitro/in vivo disconnect of an oral ERɑ VHL-PROTAC” (Communications Biology, 2024).

Sequences of proteins named here, by UniProt entry; tags and fusion partners are left off. Residues count along the entry.
UniProt P03372, whole entry: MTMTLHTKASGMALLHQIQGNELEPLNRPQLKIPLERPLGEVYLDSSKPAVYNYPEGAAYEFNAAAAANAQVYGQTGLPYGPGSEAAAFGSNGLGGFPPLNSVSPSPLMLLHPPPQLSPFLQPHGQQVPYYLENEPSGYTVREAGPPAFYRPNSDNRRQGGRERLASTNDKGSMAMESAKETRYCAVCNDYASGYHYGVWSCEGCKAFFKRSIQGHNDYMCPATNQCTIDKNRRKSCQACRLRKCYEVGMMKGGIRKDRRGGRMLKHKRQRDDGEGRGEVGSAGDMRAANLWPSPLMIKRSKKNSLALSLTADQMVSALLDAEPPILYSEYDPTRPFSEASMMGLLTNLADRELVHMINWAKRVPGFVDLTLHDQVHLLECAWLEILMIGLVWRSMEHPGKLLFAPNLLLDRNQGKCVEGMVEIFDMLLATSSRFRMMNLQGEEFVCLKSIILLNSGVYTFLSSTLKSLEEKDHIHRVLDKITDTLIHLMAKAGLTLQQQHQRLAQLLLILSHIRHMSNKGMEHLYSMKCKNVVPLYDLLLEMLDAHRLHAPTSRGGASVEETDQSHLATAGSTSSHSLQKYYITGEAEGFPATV
UniProt P03372, 311-547 limits assumed: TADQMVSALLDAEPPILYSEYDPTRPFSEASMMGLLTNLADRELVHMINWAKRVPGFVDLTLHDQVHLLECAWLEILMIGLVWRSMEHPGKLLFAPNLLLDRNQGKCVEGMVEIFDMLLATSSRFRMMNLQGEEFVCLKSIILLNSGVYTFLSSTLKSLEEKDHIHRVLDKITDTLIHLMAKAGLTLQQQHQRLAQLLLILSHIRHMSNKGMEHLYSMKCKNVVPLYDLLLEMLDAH

Assay [1] deals with recombinant human ERα ligand binding domain (LBD) (Homo sapiens, UniProt P03372). Kind of assay: ERα binding assay (LanthaScreen TR-FRET competition). Conditions: read-out: ERa binding, Mean, Table S4 source data.
The next assay deals with ERα (Homo sapiens, UniProt P03372). The experiment in a line: ERα high throughput imaging degradation assay in MCF7 cells. In kind it is cell-based. The protocol:
Cells were fixed, permeabilised and stained with anti-ERα (rabbit clone SP1, Thermo) and anti-PR (mouse clone PgR 636, Dako) antibodies followed by secondary AlexaFluor 594 goat anti-rabbit and AlexaFluor 488 goat anti-mouse IgG antibodies. Imaging was using the Thermo Cellinsight scanner and average fluorescence intensity was analysed using Genedata.

The structures appear in SMILES notation. The match of structure and compound is tentative.

On to `Cc1ncsc1-c1ccc(CNC(=O)[C@@H]2C[C@@H](O)CN2C(=O)[C@@H](NC(=O)COCC2CC2COCCOc2cc(F)c([C@@H]3c4[nH]c5ccccc5c4C[C@@H](C)N3CC(C)(C)F)c(F)c2)C(C)(C)C)cc1` (single isomer, unassigned) [11], for which the IC50 in assay [1] was determined as 1 nM. The “ERa degradation, Dmax (%)” value on ERα (Table S4 source data) is on record as 96%. Also, on ERα (read-out: ERα imaging degradation DC50, MCF7 cells, 20 to 24 hours), the DC50 – broadly, the concentration at which degradation of the target reaches its halfway point – is 0.5 nM.
